Laboratory results from patent publication US8095350.
These are yes or no findings as the source states them, for the method shown. Some entries that bind do so weakly or less than the wild type.

Key:
Settings in all cases: remark: other sources report otherwise
[1] = target: T1, Human APOBEC-2 (APO2) containing residues 41-224 (human), Q9Y235; assay: X-ray crystal structure, dimer interface
T1 chain: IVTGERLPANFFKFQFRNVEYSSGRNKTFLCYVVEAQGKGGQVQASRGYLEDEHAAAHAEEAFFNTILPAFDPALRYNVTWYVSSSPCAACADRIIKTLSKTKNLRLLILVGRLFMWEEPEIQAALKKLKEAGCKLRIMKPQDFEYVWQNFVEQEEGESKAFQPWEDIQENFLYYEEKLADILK

[2] = target: T1, Human APOBEC-2 (APO2) containing …; assay: X-ray crystal structure, figure legend FIG. 1f
[3] = target: T1, Human APOBEC-2 (APO2) containing …; assay: X-ray crystal structure, self-association
[4] = target: T1, Human APOBEC-2 (APO2) containing …; assay: X-ray crystal structure, tetramer interface
[5] = target: T1, Human APOBEC-2 (APO2) containing …; assay: X-ray crystal structure, figure legend FIG. 1e

Measured: binding

B1: Human APOBEC-2 (APO2) containing residues 41-224, Q9Y235 41-224 (enzyme, UniProt Q9Y235 41-224, looked up)
chain: IVTGERLPANFFKFQFRNVEYSSGRNKTFLCYVVEAQGKGGQVQASRGYLEDEHAAAHAEEAFFNTILPAFDPALRYNVTWYVSSSPCAACADRIIKTLSKTKNLRLLILVGRLFMWEEPEIQAALKKLKEAGCKLRIMKPQDFEYVWQNFVEQEEGESKAFQPWEDIQENFLYYEEKLADILK
binds: all assays above
